Measurements taken from patent EP4721767A1 (priority 2023, dated 2024).
For at least one compound, name, drawing or mass did not settle the structure.

Legend:
[1] = system: γ-H2AX levels in Calu-6 cells; experiment: DNA damage induction, Western blot of γ-H2AX; format: cell-based, human; settings: 72 hours; B7H3-ADC-6 0.6572-1971.7 nM, DS-7300 0.6649-664.9 nM, hz10B4m1 675.4 and 2026.3 nM, Compound 3 0.1 and 1 nM
Calu-6 cells = experiment: Cell cycle arrest (PI staining, flow cytometry); format: cell-based, human; settings: 48 hours; B7H3-ADC-6 0.6752-1971.7 nM, hz10B4m1 675.4 and 2026.3 nM, Compound 3 0.01-1 nM

CC[C@@]1(O)C(=O)OCc2c1cc1n(c2=O)Cc2c-1nc1ccc(N)c3c1c2C(F)(F)CC3 [Compound 3]
DNA damage in Calu-6 cells (γ-H2AX levels) [1]: induced DNA damage
cell cycle arrest in Calu-6 cells (Calu-6 cells): obviously induced G2/M phase arrest
